Reference: PubChem BioAssay AID1259424 (University of Nebraska Medical Center, 2018)

Screen: 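Find knockdowns that reproduce the expression shifts seen after KSR1 loss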 (primary screen)
Cells: human HCT116 colon cancer cells
Reagents: siRNA pool against human genes, 50 nM
Detection: 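Log2 levels of six mRNAs (branched-DNA multiplex), adjusted by two reference genes and the non-targeting median, then scored against the average KSR1 knockdown pattern as Pearson r and euclidean distance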
Reading the numbers: mean correlation with KSR1 profile: higher = expression change more like KSR1 knockdown
Here is an unselected part of about 14,000 deposited reagents. 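Higher correlation or smaller distance means closer resemblance to KSR1 loss; control wells, including KSR1 knockdowns, recur on many plates.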 Not all columns of the deposit are shown. Not stated in the record: the time to read-out.

MRNIP (GeneID 51149) — mean correlation with KSR1 profile = -0.267
FLT3LG (GeneID 2323) — mean correlation with KSR1 profile = 0.0125
CEP131 (GeneID 22994) — mean correlation with KSR1 profile = -0.13
PDZD2 (GeneID 23037) — mean correlation with KSR1 profile = -0.466
NCAPD2 (GeneID 9918) — mean correlation with KSR1 profile = -0.735
MGC40069 (retired record) (GeneID 348035) — mean correlation with KSR1 profile = -0.187
KRT31 (GeneID 3881) — mean correlation with KSR1 profile = -0.607
CEP152 (GeneID 22995) — mean correlation with KSR1 profile = -0.402
XAB2 (GeneID 56949) — mean correlation with KSR1 profile = 0.305
DGUOK (GeneID 1716) — mean correlation with KSR1 profile = -0.109
KCNJ10 (GeneID 3766) — mean correlation with KSR1 profile = -0.489
CNOT8 (GeneID 9337) — mean correlation with KSR1 profile = 0.0256
MB (GeneID 4151) — mean correlation with KSR1 profile = -0.609
RER1 (GeneID 11079) — mean correlation with KSR1 profile = -0.62
RAB11FIP5 (GeneID 26056) — mean correlation with KSR1 profile = -0.346
ZBTB2 (GeneID 57621) — mean correlation with KSR1 profile = -0.649
PPM1G (GeneID 5496) — mean correlation with KSR1 profile = 0.14
LMAN1L (GeneID 79748) — mean correlation with KSR1 profile = 0.0541
EIF5A2 (GeneID 56648) — mean correlation with KSR1 profile = -0.0528
UBC (GeneID 7316) — mean correlation with KSR1 profile = 0.197
LAMC1 (GeneID 3915) — mean correlation with KSR1 profile = -0.329
LARP4B (GeneID 23185) — mean correlation with KSR1 profile = 0.647

A portion taken from the entries so far, for reference:
PDZD2 (GeneID 23037) — mean correlation with KSR1 profile = -0.466
NCAPD2 (GeneID 9918) — mean correlation with KSR1 profile = -0.735
MGC40069 (retired record) (GeneID 348035) — mean correlation with KSR1 profile = -0.187
KRT31 (GeneID 3881) — mean correlation with KSR1 profile = -0.607
CEP152 (GeneID 22995) — mean correlation with KSR1 profile = -0.402

The listing continues.
CFAP69 (GeneID 79846) — mean correlation with KSR1 profile = 0.77
PURG (GeneID 29942) — mean correlation with KSR1 profile = -0.292
ATF6B (GeneID 1388) — mean correlation with KSR1 profile = -0.221
SLC45A1 (GeneID 50651) — mean correlation with KSR1 profile = -0.815
PCSK6 (GeneID 5046) — mean correlation with KSR1 profile = 0.0318
APOBEC3D (GeneID 140564) — mean correlation with KSR1 profile = 0.0478
SMYD3 (GeneID 64754) — mean correlation with KSR1 profile = -0.564
CYB5A (GeneID 1528) — mean correlation with KSR1 profile = 0.229
VSIG4 (GeneID 11326) — mean correlation with KSR1 profile = 0.496
SCAF8 (GeneID 22828) — mean correlation with KSR1 profile = 0.386
HRAS (GeneID 3265) — mean correlation with KSR1 profile = 0.219
MAP4K2 (GeneID 5871) — mean correlation with KSR1 profile = 0.658
SMARCA1 (GeneID 6594) — mean correlation with KSR1 profile = 0.0875
HOMER3 (GeneID 9454) — mean correlation with KSR1 profile = -0.0344
